Test results: PubChem BioAssay AID330 (DTP/NCI, 2004)
The list is a part of this screen's results and no random one: it gathers tests that were run many times, whatever their T/C, doses with no T/C, and many T/C values between a quarter and a half above the control. Further doses and runs are listed elsewhere. T/C is the treated group as % of the vehicle group. Some doses have a count of surviving animals in place of a T/C: the source holds a T/C of zero for them, seemingly a mark for toxic or unscored doses. Some survivor counts are full or nearly so, which does not show that the dose was tolerated: survival well below the control is almost never listed, so the zero probably covers shortened survival too. Counts of survivors are from the toxicity check (mostly the fifth day) where no day follows; animals may have died later. Schedule codes are those of the source, read here as Q, the interval in days (D) or hours (H), X, the number of doses. Some doses were run more than once; their values stand side by side, smallest first. Where survival is the endpoint, the PubChem record calls one and a half times the control and up active, and a quarter to a half above the control has no call in these data; cut-offs in other NCI protocols can differ. Some T/C values carry the count of animals alive at the toxicity check (mostly the fifth day); where none is given, no animal had died by that day.

Test system: P388 leukemia ip, CD2F1 mice, survival T/C
Assay: NCI In Vivo Anticancer Drug Screen. Data for tumor model P388 Leukemia (intraperitoneal) in CD2F1 (CDF1) mice
Settings: T/C endpoint: median survival time, higher T/C = longer survival
[1] = dose: 25.0 mg/kg/injection, schedule: Q01DX009 (ip), vehicle: saline
[2] = dose: 200.0 mg/kg/injection, schedule: Q01DX009 (ip), vehicle: saline with Tween-80
[3] = dose: 200.0 mg/kg/injection, schedule: Q01DX005 (ip), vehicle: Klucel (hydroxypropylcellulose) (HPC)
[4] = dose: 100.0 mg/kg/injection, schedule: Q01DX009 (ip), vehicle: saline with Tween-80
[5] = dose: 6.25 mg/kg/injection, schedule: Q01DX009 (ip), vehicle: distilled water + alcohol
[6] = dose: 240.0 mg/kg/injection, schedule: Q01DX005 (ip), vehicle: saline
[7] = dose: 200.0 mg/kg/injection, schedule: Q01DX009 (ip), vehicle: saline
[8] = dose: 60.0 mg/kg/injection, schedule: Q01DX005 (ip), vehicle: Klucel (hydroxypropylcellulose) (HPC)
[9] = dose: 120.0 mg/kg/injection, schedule: Q01DX005 (ip), vehicle: Klucel (hydroxypropylcellulose) (HPC)

Q: `CCN1c2ccccc2C(Cl)(c2ccc(N(C)C)cc2)c2ccccc21` was tested. Which T/C [1] did it give?
A: The T/C was 129 % of control.

Q: Which T/C (dose: 5.0 mg/kg/injection, schedule: Q01DX009 (ip), vehicle: saline) does the source give for `S=P(N1CCCC1)(N1CC1)N1CC1` here?
A: The T/C was 144 % of control.

Q: What about the T/C (dose: 16.5 mg/kg/injection, schedule: Q04DX003 (ip), vehicle: saline with Tween-80) of the same molecule?
A: Its T/C is 140 % of control.

Q: `Cc1ccc(S(=O)(=O)CC(=O)c2ccc(Br)cc2)cc1` was tested. Which survivor count [2] did it give?
A: The survivor count was 6 of 6.

Q: And the survivor count (dose: 400.0 mg/kg/injection, schedule: Q01DX009 (ip), vehicle: saline with Tween-80)?
A: Its survivor count is 6 of 6.

Q: How did the survivor count [3] turn out when `COc1ccc(C)cc1N=NC1C(=O)N(C(=O)CC(=O)Nc2ccccc2Cl)N=C1C` (centres undefined) was run?
A: Its survivor count is 6 of 6.

Q: `Cc1ccccc1-c1nc2c(N)nc(N)nc2nc1N` was tested. Which T/C [4] did it give?
A: The T/C was 140 % of control.

Q: What about the T/C (dose: 400.0 mg/kg/injection, schedule: Q04DX003 (ip), vehicle: saline with Tween-80) of the same molecule?
A: Its T/C is 145 % of control.

Q: What about the T/C (dose: 600.0 mg/kg/injection, schedule: Q04DX003 (ip), vehicle: saline with Tween-80) of the same molecule?
A: Its T/C is 140 % of control.

Q: Which T/C (dose: 1.56 mg/kg/injection, schedule: Q01DX009 (ip), vehicle: distilled water + alcohol) does the source give for `CC(C)(C)CC(C)(C)N[P+](NC(C)(C)CC(C)(C)C)(NC(C)(C)CC(C)(C)C)NC(C)(C)CC(C)(C)C` here?
A: Its T/C is 140 % of control [5 of 6 alive].

Q: What about the T/C (dose: 3.12 mg/kg/injection, schedule: Q01DX009 (ip), vehicle: distilled water + alcohol) of the same molecule?
A: Its T/C is 146 % of control.

Q: What about the T/C [5] of the same molecule?
A: The T/C was 138 % of control.

Q: What about the survivor count [5] of the same molecule?
A: The survivor count was 5 of 6.

Q: And the survivor count (dose: 12.5 mg/kg/injection, schedule: Q01DX009 (ip), vehicle: distilled water + alcohol)?
A: Its survivor count is 2 of 6 and 4 of 6.

Q: What about the survivor count (dose: 25.0 mg/kg/injection, schedule: Q01DX009 (ip), vehicle: distilled water + alcohol) of the same molecule?
A: The survivor count was 0 of 6.

Q: And the survivor count (dose: 50.0 mg/kg/injection, schedule: Q01DX009 (ip), vehicle: distilled water + alcohol)?
A: The survivor count was 0 of 6.

Q: And the survivor count (dose: 100.0 mg/kg/injection, schedule: Q01DX009 (ip), vehicle: distilled water + alcohol)?
A: The survivor count was 0 of 6.

Q: And the survivor count (dose: 200.0 mg/kg/injection, schedule: Q01DX009 (ip), vehicle: distilled water + alcohol)?
A: Its survivor count is 0 of 6.

Q: For `CN(C)c1ccc2nc3ccc(=N)cc-3sc2c1`, which survivor count [6] is on record?
A: Its survivor count is 0 of 6.

Q: For `COc1ccc2c(c1)CCCN2`, which T/C [4] is on record?
A: The T/C was 132 % of control.

Q: And the T/C [2]?
A: The T/C was 125 and 128 % of control.

Q: For `CCN(CC)CCN(C)C(C)C(=O)Nc1ccccc1Cl` (centres undefined), which survivor count [6] is on record?
A: Its survivor count is 0 of 6.

Q: For `O=C1N(Cl)C(=O)C2(c3ccccc3-c3ccccc32)N1Cl`, which survivor count [3] is on record?
A: Its survivor count is 0 of 6.

Q: Which survivor count [7] does the source give for `CC(C)N1CCOC(c2cccc(C(F)(F)F)c2)C1` (centres undefined) here?
A: The survivor count was 4 of 6.

Q: How did the survivor count [8] turn out when `CC(=O)Cc1nc2ccccc2[nH]c1=O` was run?
A: The survivor count was 6 of 6.

Q: And the survivor count [9]?
A: Its survivor count is 6 of 6.

Q: How did the survivor count [8] turn out when `COc1cccc(/C=C2/C(=O)N(c3ccc([N+](=O)[O-])cc3)N=C2C)c1` was run?
A: Its survivor count is 6 of 6.

Q: And the survivor count [9]?
A: Its survivor count is 6 of 6.

Q: How did the survivor count (dose: 200.0 mg/kg/injection, schedule: Q04DX002 (ip), vehicle: saline with Tween-80) turn out when `CSC(=S)c1c(O)ccc2ccccc12` was run?
A: Its survivor count is 1 of 6.

Q: And the survivor count (dose: 400.0 mg/kg/injection, schedule: Q04DX002 (ip), vehicle: saline with Tween-80)?
A: Its survivor count is 0 of 6.

Q: Which results are given for `COc1cc(OC)c(/C=C\c2cc(/C=C/c3c(OC)cc(OC)cc3OC)c3ccccc3[n+]2C)c(OC)c1`?
A: T/C (dose: 12.5 mg/kg/injection, schedule: Q01DX009 (ip), vehicle: saline): 146 % of control; survivor count (dose: 16.0 mg/kg/injection, schedule: Q01DX009 (ip), vehicle: saline): 5 of 6; T/C [1]: 144 % of control; survivor count [1]: 5 of 6 and 6 of 6; survivor count (dose: 35.0 mg/kg/injection, schedule: Q01DX009 (ip), vehicle: saline): 5 of 6; survivor count (dose: 50.0 mg/kg/injection, schedule: Q01DX009 (ip), vehicle: saline): 2 of 6 and 5 of 6; survivor count (dose: 100.0 mg/kg/injection, schedule: Q01DX009 (ip), vehicle: saline): 1 of 6; survivor count [7]: 2 of 6; survivor count (dose: 400.0 mg/kg/injection, schedule: Q01DX009 (ip), vehicle: saline): 0 of 6
